Measured values reported in patent publication US4237046 (dated 1980).

experiment: general procedure: solution-phase peptide synthesis; p-nitrophenyl and pentachlorophenyl active esters with HOBt/DIEA; DCC/HOBt for f; conditions: coupling step, di-trifluoroacetate salt

Substance | step yield [%]
Benzyloxycarbonyl-L-alanyl-L-valyl-N^ε -t-butyloxycarbonyl-L-lysyl-N^ε -t-butyloxycarbonyl-L-lysyl-L-tyrosyl-L-leucyl-L-asparaginyl-O-t-butyl-L-seryl-L-valyl-L-leucyl-L-threoninamide | 84
Benzyloxycarbonyl-L-asparaginyl-O-t-butyl-L-seryl-L-valyl-L-leucyl-L-threoninamide | 91
Benzyloxycarbonyl-L-leucyl-L-asparaginyl-O-t-butyl-L-seryl-L-valyl-L-leucyl-L-threoninamide | 95
Benzyloxycarbonyl-L-tyrosyl-L-leucyl-L-asparaginyl-O-t-butyl-L-seryl-L-valyl-L-leucyl-L-threoninamide | 92
Benzyloxycarbonyl-L-valyl-N^ε -t-butyloxycarbonyl-L-lysyl-N^ε -t-butyloxycarbonyl-L-lysyl-L-tyrosyl-L-leucyl-L-asparaginyl-O-t-butyl-L-seryl-L-valyl-L-leucyl-L-threoninamide | 81
N-Benzylocycarbonyl-O-t-butyl-L-seryl-L-valyl-L-leucyl-L-threonin-amide | 86
N^α -Benzyloxycarbonyl-N^ε -t-butyloxycarbonyl-L-lysyl-L-tyrosyl-L-leucyl-L-asparaginyl-O-t-butyl-L-seryl-L-valyl-L-leucyl-L-threoninamide | 98
N^α -Benzyloxycarbonyl-N^ε -t-butyloxycarbonyl-L-lysyl-N^ε -t-butyloxy-carbonyl-L-lysyl-L-tyrosyl-L-leucyl-L-asparaginyl-O-t-butyl-L- seryl-L-valyl-L-leucyl-L-threoninamide | 97
t-Butyloxycarbonyl-L-glutaminyl-L-methionyl-L-alanyl-L-valyl-N^ε -benzyloxycarbonyl-L-lysine benzyl ester | 93
t-Butyloxycarbonyl-L-methionyl-L-alanyl-L-valyl-N^ε -benzyloxycarbonyl-L-lysine benzyl ester | 93
t-Butyloxycarbonyl-t-glutaminyl-L-methionyl-L-alanyl-L-valyl-N^ε -t-butyloxycarbonyl-L-lysinamide | 87

same assay, conditions: coupling step, total yield, di-trifluoroacetate salt

Substance | step yield [%]
tert-Butyloxycarbonyl-L-glutaminyl-L-methionyl-L-alanyl-L-valine tert-butyl ester | 87
